Data: PubChem BioAssay AID651 (University of Pittsburgh Molecular Library Screening Center, 2007)
Out of some 1,000 compounds screened, about 390 (39%) were called active. Inconclusive means that the source gave no clear call. Such entries were picked first, then a sample of the others. No stated cut-off is given here; in the data, active means inhibition above about 48%; inconclusive means no clear call, values can overlap the other calls; inactive means below that.

target: Gag-Pol polyprotein (Human immunodeficiency virus type 1 group M subtype B (isolate HXB2)) (UniProt P04585); assay: HIV-1 RT RNase H inhibitors, retest, confirmation, biochemical (AID 651); details: Recombinant RT RNase H, fluorescent RNA/DNA duplex cleavage; at 10 µM; stronger effect = higher value

Which inhibition does the source give for `Cc1sc(-n2c(C)ccc2C)c(C#N)c1C` here?
The inhibition was inconclusive: 47.8%.

How did the inhibition turn out when `CNC(=O)c1c(N)sc2c1CCCCC2` was run?
Its inhibition is inconclusive: 49.6%.

For `CCOC(=O)c1cc2sc(C)cc2n1CC(=O)Nc1ccc2c(c1)OCCO2`, which inhibition is on record?
Its inhibition is inconclusive: 45.5%.

Which inhibition does the source give for `CCOc1ccc(C2SCC(=O)Nc3c2c(=O)[nH]n3C2CCCCCC2)cc1` (stereo unspecified) here?
The inhibition was inactive: 3.99%.

`Cc1ccc2oc3c(c(=O)c2c1)C(c1cccc(Br)c1)N(Cc1ccco1)C3=O` (stereo unspecified) was tested. Which inhibition did it give?
The inhibition was inconclusive: 50.2%.

`Nc1c(C(=O)NCC2CCCO2)sc(=S)n1-c1ccccc1` (stereo unspecified) was tested. Which inhibition did it give?
The inhibition was inconclusive: 47.2%.

For `COC(=O)Nc1nnc(-c2ccncc2)s1`, which inhibition is on record?
Its inhibition is inconclusive: 53.6%.

`Oc1ccc(N2CCN(C(c3ccncc3)c3nnnn3C3CCCC3)CC2)cc1` (stereo unspecified) was tested. Which inhibition did it give?
The inhibition was inconclusive: 50.2%.

How did the inhibition turn out when `Cc1ccnc(-n2sc3ccccc3c2=O)n1` was run?
Its inhibition is active: 60%.

With `C/C=C/CSc1nc2c(c(=O)[nH]c(=O)n2C)n1Cc1ccc(C)cc1` as the compound, how does the inhibition read?
Its inhibition is active: 71.7%.

`CCOc1ccccc1-c1nc(-c2ccc(NC(=O)Cc3ccc(OC)cc3)cc2)no1` was tested. Which inhibition did it give?
The inhibition was inconclusive: 42.5%.

How did the inhibition turn out when `CCOC(=O)c1c(C)[nH]c(C(=O)CSc2nnc(CC(C)c3ccccc3)o2)c1C` (stereo unspecified) was run?
Its inhibition is inconclusive: 49.8%.

`COc1cc(C(=O)OCC(=O)Nc2cc(C)on2)ccc1OCc1ccccc1Cl` was tested. Which inhibition did it give?
Its inhibition is inactive: 20.8%.

Which inhibition does the source give for `Cc1cc(-c2nc3c4c5c(sc4[nH]c(=O)n3n2)CCC5)c(C)o1` here?
Its inhibition is inconclusive: 49.8%.

With `CCCc1cc(C(=O)Nc2sc(C(C)=O)c(C)c2C(=O)OCC)no1` as the compound, how does the inhibition read?
Its inhibition is inconclusive: 51.8%.

With `CCOc1cc2[nH]c(=O)n(CC3CCC(C(=O)NCCC(C)C)CC3)c(=O)c2cc1OCC` (stereo unspecified) as the compound, how does the inhibition read?
The inhibition was inconclusive: 54.2%.

How did the inhibition turn out when `Clc1ccc(-c2ccc(-c3nn4c(-c5ccco5)nnc4s3)o2)cc1` was run?
The inhibition was inconclusive: 54.9%.

With `Cc1cc(C)n2c(SC/C(O)=C(\C#N)c3nc4ccccc4[nH]3)nnc2n1` as the compound, how does the inhibition read?
Its inhibition is inconclusive: 52.3%.

How did the inhibition turn out when `COc1ccc(OC)c(NS(=O)(=O)Cc2ccccc2)c1` was run?
Its inhibition is inconclusive: 49.4%.

`Cc1nnc(NC(=O)NC(C)N2C(=O)C3C4C=CC(C4)C3C2=O)s1` (stereo unspecified) was tested. Which inhibition did it give?
Its inhibition is inactive: -1.31%.

Which inhibition does the source give for `Cc1[nH]c2ccc(-c3nnc(SCC(=O)c4ccc(F)cc4)o3)cc2c1C` here?
Its inhibition is inconclusive: 53.6%.

How did the inhibition turn out when `COc1ccc(Br)cc1/C=c1\sc2nc(-c3ccco3)nn2c1=O` was run?
Its inhibition is inconclusive: 49.7%.

For `O=C1c2sc3nc4ccccc4n3c2C(=O)N1c1ccccc1Cl`, which inhibition is on record?
The inhibition was active: 72.2%.

For `CCn1cc(C(=O)NCc2ccco2)c(=O)c2cc(S(=O)(=O)N3CCc4ccccc4C3)ccc21`, which inhibition is on record?
Its inhibition is active: 63.1%.

For `CCOC(=O)c1sc(NC(=O)CSc2nc(-c3ccco3)cc(C(F)(F)F)n2)c(C#N)c1C`, which inhibition is on record?
Its inhibition is inconclusive: 48.6%.

For `Nc1c(C(=O)N2CCOCC2)sc(=S)n1-c1ccccc1`, which inhibition is on record?
Its inhibition is active: 64.6%.

`Cc1noc(NS(=O)(=O)c2ccc(NC(=O)CSc3nc4c(cc3C#N)CCC4)cc2)c1C` was tested. Which inhibition did it give?
The inhibition was inconclusive: 53.2%.

With `CCc1ccc(OCC(=O)Nc2ccc(-c3nc4ccccc4o3)c(O)c2)cc1` as the compound, how does the inhibition read?
The inhibition was inconclusive: 53.7%.

How did the inhibition turn out when `CCn1c(=NC(=O)c2ccc(N3C(=O)CCC3=O)cc2)sc2c(OC)ccc(OC)c21` was run?
The inhibition was inconclusive: 51.4%.

`COc1ccc(C(=O)Nc2oc(-c3ccccc3)c(-c3ccccc3)c2C#N)cc1OC` was tested. Which inhibition did it give?
Its inhibition is inconclusive: 48.4%.

For `CCc1ccc(NC(=O)CSc2nc3cc(C(=O)OC)ccc3c(=O)n2Cc2ccco2)cc1`, which inhibition is on record?
Its inhibition is active: 57.4%.

Which inhibition does the source give for `c1coc(-c2nnc3sc(C4CCCCC4)nn23)c1` here?
The inhibition was inconclusive: 54.3%.

With `COC(=O)c1sc(NC(C)=O)c(C(=O)OC)c1C` as the compound, how does the inhibition read?
Its inhibition is inactive: -0.0272%.

With `CC1CCc2c(sc(NC(=O)c3ccc(Cn4cc(Br)cn4)o3)c2C(N)=O)C1` (stereo unspecified) as the compound, how does the inhibition read?
The inhibition was active: 59.9%.

`O=C(c1ccc2c3c(cccc13)C(=O)N(O)C2=O)N1CCCCC1` was tested. Which inhibition did it give?
Its inhibition is active: 70.3%.

How did the inhibition turn out when `CC(C)(C)c1ccc(C(=O)Nc2nonc2-c2nc3ccccc3[nH]2)cc1` was run?
Its inhibition is inconclusive: 47.4%.

For `Cc1cccc(NC(=O)c2cc(NC(=O)c3ccco3)ccc2N2CCCCC2)c1`, which inhibition is on record?
Its inhibition is inconclusive: 49.5%.

Which inhibition does the source give for `O=C(CSc1nc2c([nH]c3ccccc32)c(=O)n1-c1cccc(Cl)c1)N1CCOCC1` here?
The inhibition was active: 66.7%.

How did the inhibition turn out when `CC(C)Oc1ccc(-c2nn(-c3ccccc3)cc2/C=c2\sc3ncnn3c2=O)cc1` was run?
The inhibition was inconclusive: 41.9%.

For `O=C(CSc1nc2cc(S(=O)(=O)N3CCOCC3)ccc2o1)NC1CCCc2ccccc21` (stereo unspecified), which inhibition is on record?
The inhibition was inconclusive: 50.7%.

With `CC1(C)Cc2c(c(N3CCOCC3)nc3sc(C(=O)N4CCCCC4)c(N)c23)CO1` as the compound, how does the inhibition read?
The inhibition was inactive: 41.3%.

With `O=C(Nc1nnc(-c2ccc3c(c2)OCCO3)o1)c1ccc(Cc2ccccc2)cc1` as the compound, how does the inhibition read?
Its inhibition is inactive: 10.2%.

Which inhibition does the source give for `c1ccc(-n2ncc3c2ncn2c(CSc4nc5ccccc5s4)nnc32)cc1` here?
The inhibition was inconclusive: 60.1%.

For `Cc1csc(NC(=O)c2c(O)c3c(n(CC(C)C)c2=O)CCCC3)n1`, which inhibition is on record?
The inhibition was inconclusive: 46.9%.

How did the inhibition turn out when `Clc1ccccc1-c1nnc2sc(-c3ccc4c(c3)OCO4)nn12` was run?
The inhibition was inconclusive: 47.9%.

For `Cc1cc(C)c(NC(=O)Cn2c(=O)n(Cc3ccco3)c(=O)c3ccccc32)c(C)c1`, which inhibition is on record?
The inhibition was active: 72.8%.

`Cc1ccc(-c2nc3ccccc3o2)cc1NC(=O)c1ccc2c(c1)OCO2` was tested. Which inhibition did it give?
The inhibition was inactive: 14%.

How did the inhibition turn out when `CC(=O)C1=C(C)NC(SCC(N)=O)=C(C#N)C1c1cccnc1` (stereo unspecified) was run?
Its inhibition is inactive: 40.5%.

`COc1ccc(N2CSC3=C(C#N)C(c4cccs4)CC(=O)N3C2)cc1` (stereo unspecified) was tested. Which inhibition did it give?
Its inhibition is inconclusive: 52.6%.

Which inhibition does the source give for `CCOC(=O)c1sc(NC(=O)CSc2nc3c(cc2C#N)CCCCCC3)c(C#N)c1C` here?
Its inhibition is inconclusive: 50.8%.

How did the inhibition turn out when `O=C(Nc1cccnc1)c1c(O)c2c(n(Cc3ccccc3)c1=O)CCCC2` was run?
Its inhibition is inconclusive: 51.4%.

How did the inhibition turn out when `COc1ccc(S(=O)(=O)Nc2ccc(O)c3ccccc23)cc1` was run?
The inhibition was active: 56.8%.

`CN=C(c1ccco1)n1c(=S)nc(-c2ccco2)n(C)c1=S` was tested. Which inhibition did it give?
The inhibition was inconclusive: 46.3%.

With `O=C(NCCCc1ccccc1)c1cnc2n(c1=O)CCS2` as the compound, how does the inhibition read?
Its inhibition is inactive: 31.6%.

With `CN(C)c1ccc(N=Cc2c(O)n(CCC3=CCCCC3)c(=O)[nH]c2=O)cc1` as the compound, how does the inhibition read?
The inhibition was active: 51.2%.

Which inhibition does the source give for `CCC(=O)N(Cc1cc(=O)[nH]c2ccccc12)c1cccc(C)c1` here?
The inhibition was inactive: 1.59%.

For `COC(=O)CSC1=NS(=O)(=O)c2ccccc21`, which inhibition is on record?
Its inhibition is inactive: -2.06%.

For `CC1CC(C)(C)NC(=S)S1` (stereo unspecified), which inhibition is on record?
The inhibition was active: 51.9%.

Which inhibition does the source give for `CCOC(=O)c1cc2sccc2n1CC(=O)N1c2ccccc2CC1C` (stereo unspecified) here?
Its inhibition is inconclusive: 48.8%.

`CN1CCN(C2=C(Cl)C(=O)N(c3ccc(Cl)cc3)C2=O)CC1` was tested. Which inhibition did it give?
The inhibition was inactive: 40%.

How did the inhibition turn out when `Cc1noc(C)c1CSc1nnc2scc(-c3ccccc3)n12` was run?
Its inhibition is inactive: 16.2%.
